Assay results as given in patent US20250304621A1, “POLYPEPTIDE FOR SPECIFICALLY BLOCKING BINDING OF ACVR1C TO GREM1 AND USE THEREOF” (The Seventh Affiliated Hospital, Sun Yat-Sen University, priority 2024, published 2025).
These are yes or no findings as the source states them, for the method shown. In cells and extracts the contact can be indirect.

Target: T1, ACVR1C (activin receptor type-1C) (human) (UniProt Q8NER5)
T1 sequence (looked up): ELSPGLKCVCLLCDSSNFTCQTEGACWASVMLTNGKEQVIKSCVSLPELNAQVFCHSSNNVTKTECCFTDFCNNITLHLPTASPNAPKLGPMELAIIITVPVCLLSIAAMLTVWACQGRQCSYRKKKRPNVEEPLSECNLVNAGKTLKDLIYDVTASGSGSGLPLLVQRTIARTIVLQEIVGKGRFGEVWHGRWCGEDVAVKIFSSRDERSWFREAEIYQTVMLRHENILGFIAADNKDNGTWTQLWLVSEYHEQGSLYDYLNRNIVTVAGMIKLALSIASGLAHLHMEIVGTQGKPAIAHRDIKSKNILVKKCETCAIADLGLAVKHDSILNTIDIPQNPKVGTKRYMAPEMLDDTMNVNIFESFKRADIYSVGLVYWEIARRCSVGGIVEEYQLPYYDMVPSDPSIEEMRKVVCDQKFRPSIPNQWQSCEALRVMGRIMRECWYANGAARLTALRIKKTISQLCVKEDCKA
Experiment: co-IP in HCT116 cells

binding: no binding
Substance: truncated GREM1 lacking amino acids 100-157 (G3) (ligand)
